Values of other authors as cited in US20090203658A1, “NEUROACTIVE STEROID COMPOSITIONS AND METHODS OF USE THEREFOR” (Duke University, priority 2007, published 2009).
For at least one compound, name, drawing or mass did not settle the structure.

Tested on: rat hippocampus, cerebral, cortex, and serum
Settings: in vivo; cited from earlier work

Compound: CN1CCN(C2=Nc3cc(Cl)ccc3Nc3ccccc32)CC1 [clozapine]
- effect on PG in rat hippocampus, cerebral, cortex, and serum: markedly increases
